Measured values reported in article PMC3501523.
No constants are given. Whether binding was seen depends on the method and setting. Binding seen in cells or lysates may run through a third protein. Some results given as binding are weak or reduced against the parent protein; the word gives no strength.

By UniProt entry, the sequences of proteins in these tests, tags left out.
UniProt P25963: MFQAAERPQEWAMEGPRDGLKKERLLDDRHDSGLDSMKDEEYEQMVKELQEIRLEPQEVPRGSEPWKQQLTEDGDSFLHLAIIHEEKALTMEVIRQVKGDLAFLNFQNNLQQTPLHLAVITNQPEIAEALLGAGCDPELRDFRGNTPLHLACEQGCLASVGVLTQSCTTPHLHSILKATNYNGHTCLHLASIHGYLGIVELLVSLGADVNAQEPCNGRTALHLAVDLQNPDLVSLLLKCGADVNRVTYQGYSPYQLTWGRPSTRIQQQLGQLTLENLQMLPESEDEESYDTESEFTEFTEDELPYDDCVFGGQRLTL
UniProt Q04206: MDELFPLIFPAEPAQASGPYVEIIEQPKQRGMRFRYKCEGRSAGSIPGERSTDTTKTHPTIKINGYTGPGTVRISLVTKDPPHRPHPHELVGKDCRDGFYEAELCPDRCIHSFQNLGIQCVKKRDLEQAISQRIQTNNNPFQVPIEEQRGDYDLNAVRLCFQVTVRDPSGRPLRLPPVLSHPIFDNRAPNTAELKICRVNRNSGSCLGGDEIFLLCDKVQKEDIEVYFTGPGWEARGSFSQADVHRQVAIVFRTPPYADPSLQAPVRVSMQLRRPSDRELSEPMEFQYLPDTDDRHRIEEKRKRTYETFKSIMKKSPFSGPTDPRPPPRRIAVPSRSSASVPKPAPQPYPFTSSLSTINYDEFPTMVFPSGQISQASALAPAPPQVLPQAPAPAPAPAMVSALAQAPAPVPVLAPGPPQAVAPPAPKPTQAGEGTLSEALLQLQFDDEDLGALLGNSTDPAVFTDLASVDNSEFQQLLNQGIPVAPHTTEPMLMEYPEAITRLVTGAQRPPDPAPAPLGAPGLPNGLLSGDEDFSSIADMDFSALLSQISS

Tests used:
[1] = biological target: IκBα (human (endogenous in MCF10A and MCF-7/RT)) (UniProt P25963); assay: co-IP; 0.5 mg of cell extract protein (50 mM Tris pH 7.4, 150 mM NaCl, 5 mM EDTA, 0.5% NP-40) incubated with anti-p65/RelA or anti-IκBα antibody (2 µg) overnight at 4°C, Protein A/G Plus-Agarose; immunoblot with anti-TG2
[2] = biological target: p65/RelA subunit of NF-κB (human (endogenous in MCF10A and MCF-7/RT)) (UniProt Q04206); assay: as above

Row | binding [1] | binding [2] | Binder
1 | binds | binds | catalytically inactive tissue transglutaminase (TG2-C277S) (enzyme, UniProt P21980 1-687) MAEELVLERCDLELETNGRDHHTADLCREKLVVRRGQPFWLTLHFEGRNYEASVDSLTFSVVTGPAPSQEAGTKARFPLRDAVEEGDWTATVVDQQDCTLSLQLTTPANAPIGLYRLSLEASTGYQGSSFVLGHFILLFNAWCPADAVYLDSEEERQEYVLTQQGFIYQGSAKFIKNIPWNFGQFEDGILDICLILLDVNPKFLKNAGRDCSRRSSPVYVGRVVSGMVNCNDDQGVLLGRWDNNYGDGVSPMSWIGSVDILRRWKNHGCQRVKYGQSWVFAAVACTVLRCLGIPTRVVTNYNSAHDQNSNLLIEYFRNEFGEIQGDKSEMIWNFHCWVESWMTRPDLQPGYEGWQALDPTPQEKSEGTYCCGPVPVRAIKEGDLSTKYDAPFVFAEVNADVVDWIQQDDGSVHKSINRSLIVGLKISTKSVGRDEREDITHTYKYPEGSSEEREAFTRANHLNKLAEKEETGMAMRIRVGQSMNMGSDFDVFAHITNNTAEEYVCRLLLCARTVSYNGILGPECGTKYLLNLNLEPFSEKSVPLCILYEKYRDCLTESNLIKVRALLVEPVINSYLLAERDLYLENPEIKIRILGEPKQKRKLVAEVSLQNPLPVALEGCTFTVEGAGLTEEQKTVEIPDPVEAGEEVKVRMDLLPLHMGLHKLVVNFESDKLKAVKGFRNVIIGPA
2 | binds | binds | tissue transglutaminase (TG2), endogenous in MCF-7/RT cells (enzyme, UniProt P21980 1-687) MAEELVLERCDLELETNGRDHHTADLCREKLVVRRGQPFWLTLHFEGRNYEASVDSLTFSVVTGPAPSQEAGTKARFPLRDAVEEGDWTATVVDQQDCTLSLQLTTPANAPIGLYRLSLEASTGYQGSSFVLGHFILLFNAWCPADAVYLDSEEERQEYVLTQQGFIYQGSAKFIKNIPWNFGQFEDGILDICLILLDVNPKFLKNAGRDCSRRSSPVYVGRVVSGMVNCNDDQGVLLGRWDNNYGDGVSPMSWIGSVDILRRWKNHGCQRVKYGQCWVFAAVACTVLRCLGIPTRVVTNYNSAHDQNSNLLIEYFRNEFGEIQGDKSEMIWNFHCWVESWMTRPDLQPGYEGWQALDPTPQEKSEGTYCCGPVPVRAIKEGDLSTKYDAPFVFAEVNADVVDWIQQDDGSVHKSINRSLIVGLKISTKSVGRDEREDITHTYKYPEGSSEEREAFTRANHLNKLAEKEETGMAMRIRVGQSMNMGSDFDVFAHITNNTAEEYVCRLLLCARTVSYNGILGPECGTKYLLNLNLEPFSEKSVPLCILYEKYRDCLTESNLIKVRALLVEPVINSYLLAERDLYLENPEIKIRILGEPKQKRKLVAEVSLQNPLPVALEGCTFTVEGAGLTEEQKTVEIPDPVEAGEEVKVRMDLLPLHMGLHKLVVNFESDKLKAVKGFRNVIIGPA
